These are yes or no findings as the source states them, for the method shown. Binding can be weak; no strength is given.
Biological target: T1, EXO70B1 exocyst subunit, two-hybrid bait (Arabidopsis) (UniProt Q9FGH9)
T1 sequence: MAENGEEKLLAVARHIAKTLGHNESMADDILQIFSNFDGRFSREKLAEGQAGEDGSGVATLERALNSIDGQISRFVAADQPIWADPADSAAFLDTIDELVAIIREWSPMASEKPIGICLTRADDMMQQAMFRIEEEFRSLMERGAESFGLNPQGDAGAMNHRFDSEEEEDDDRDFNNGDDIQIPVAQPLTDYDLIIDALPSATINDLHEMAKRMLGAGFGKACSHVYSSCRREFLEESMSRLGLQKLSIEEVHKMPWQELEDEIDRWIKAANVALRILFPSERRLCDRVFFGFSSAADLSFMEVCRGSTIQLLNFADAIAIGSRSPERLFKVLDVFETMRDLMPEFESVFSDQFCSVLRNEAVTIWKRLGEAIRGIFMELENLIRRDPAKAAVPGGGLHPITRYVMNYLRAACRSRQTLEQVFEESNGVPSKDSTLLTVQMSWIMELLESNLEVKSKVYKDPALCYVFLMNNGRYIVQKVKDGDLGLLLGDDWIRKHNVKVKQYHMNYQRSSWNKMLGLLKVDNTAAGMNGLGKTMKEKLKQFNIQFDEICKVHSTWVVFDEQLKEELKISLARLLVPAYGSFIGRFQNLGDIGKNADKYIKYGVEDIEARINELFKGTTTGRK
Assay: two-hybrid; RIN4 constructs and NOI6 in pGADT7 (prey), exocyst subunits in bait vectors; yeast plated in a 10x dilution series from OD600=0.1 on plates without leucine, tryptophan, histidine and adenine

With “N-terminal RIN4 fragment (N-RCS2), two-hybrid prey (Arabidopsis) (domain or fragment)” the binding was “binds weakly”.

— publication PMC5853926
